The other results are listed elsewhere or left out.
Legend:
Test in all cases: log2 fold change, soluble protein after heating vs DMSO (PISA); higher = thermal stabilisation; K562 cells, 10 uM, 30 min; active = over 0.2 and 3.5 SD of the protein, either way, in both replicates (recomputed)
[1] = compound: C/C(=N\NC(=O)C1=CC(=CC=C1)S(=O)(=O)N2CCOCC2)/C3=C(C=CC(=C3)Cl)O
In short: (§1)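 K562 cells at 2×10^6 cells/mL were treated for 30 min with 10 μM compound, and aliquots were heated for 3 min over 48°C-58°C before pooling. Extraction used PBS with 0.5% NP-40 at 4°C, and soluble protein was the supernatant after 21,000xg for 90 min, measured by TMTpro 16plex LC-MS/MS with channel sums equalised. Thermal stability values, relative to control samples and from duplicates, are log2 fold changes.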

Sequences of proteins named here, by UniProt entry; tags and fusion partners are left off. A change or cut given only in a name is not applied to a line headed by its entry.
UniProt O43182: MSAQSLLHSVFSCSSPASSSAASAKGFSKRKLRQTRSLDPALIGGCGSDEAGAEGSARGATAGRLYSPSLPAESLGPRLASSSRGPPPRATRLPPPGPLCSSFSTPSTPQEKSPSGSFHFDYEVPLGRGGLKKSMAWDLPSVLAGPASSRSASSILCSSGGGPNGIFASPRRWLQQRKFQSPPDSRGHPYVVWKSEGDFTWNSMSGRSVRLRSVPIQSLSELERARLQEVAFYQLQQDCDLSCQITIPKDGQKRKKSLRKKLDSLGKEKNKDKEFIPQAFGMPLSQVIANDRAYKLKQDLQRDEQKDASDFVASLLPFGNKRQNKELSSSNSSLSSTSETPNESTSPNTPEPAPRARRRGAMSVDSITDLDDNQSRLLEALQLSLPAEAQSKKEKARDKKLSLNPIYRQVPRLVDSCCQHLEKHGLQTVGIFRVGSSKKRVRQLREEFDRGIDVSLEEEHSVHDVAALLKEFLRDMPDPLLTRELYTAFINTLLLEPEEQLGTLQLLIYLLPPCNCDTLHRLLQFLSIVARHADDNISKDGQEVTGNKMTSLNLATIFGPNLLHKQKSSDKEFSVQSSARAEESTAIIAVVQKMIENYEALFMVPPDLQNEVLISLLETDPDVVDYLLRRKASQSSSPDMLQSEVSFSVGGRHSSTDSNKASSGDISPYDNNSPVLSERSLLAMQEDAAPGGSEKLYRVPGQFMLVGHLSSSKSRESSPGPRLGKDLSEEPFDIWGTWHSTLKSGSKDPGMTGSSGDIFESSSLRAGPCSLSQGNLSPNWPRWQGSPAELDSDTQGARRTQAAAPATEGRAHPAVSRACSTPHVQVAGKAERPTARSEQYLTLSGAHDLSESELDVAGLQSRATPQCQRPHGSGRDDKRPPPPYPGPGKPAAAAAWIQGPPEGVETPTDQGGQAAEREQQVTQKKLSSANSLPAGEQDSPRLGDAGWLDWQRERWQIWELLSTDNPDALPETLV
UniProt Q8IUX4: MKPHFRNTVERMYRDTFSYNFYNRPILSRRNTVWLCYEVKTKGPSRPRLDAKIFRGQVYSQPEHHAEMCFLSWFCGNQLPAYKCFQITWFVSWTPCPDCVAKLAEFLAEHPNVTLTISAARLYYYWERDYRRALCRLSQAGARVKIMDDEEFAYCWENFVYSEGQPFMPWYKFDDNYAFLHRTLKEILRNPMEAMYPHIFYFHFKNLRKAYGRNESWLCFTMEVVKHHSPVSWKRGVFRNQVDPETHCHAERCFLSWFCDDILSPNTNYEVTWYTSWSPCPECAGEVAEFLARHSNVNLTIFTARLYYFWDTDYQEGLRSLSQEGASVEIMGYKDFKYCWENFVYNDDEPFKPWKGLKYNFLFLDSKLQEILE
UniProt Q9UH17: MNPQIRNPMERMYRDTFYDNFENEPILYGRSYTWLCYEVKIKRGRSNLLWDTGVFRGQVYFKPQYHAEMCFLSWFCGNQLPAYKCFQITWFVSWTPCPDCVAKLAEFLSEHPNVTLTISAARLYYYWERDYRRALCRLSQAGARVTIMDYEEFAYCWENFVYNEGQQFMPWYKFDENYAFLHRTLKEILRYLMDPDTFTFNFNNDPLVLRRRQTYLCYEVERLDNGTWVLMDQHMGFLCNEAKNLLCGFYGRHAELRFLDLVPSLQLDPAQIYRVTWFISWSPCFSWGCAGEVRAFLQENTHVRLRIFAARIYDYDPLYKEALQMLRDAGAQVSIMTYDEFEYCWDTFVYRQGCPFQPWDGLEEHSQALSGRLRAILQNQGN
UniProt P53677: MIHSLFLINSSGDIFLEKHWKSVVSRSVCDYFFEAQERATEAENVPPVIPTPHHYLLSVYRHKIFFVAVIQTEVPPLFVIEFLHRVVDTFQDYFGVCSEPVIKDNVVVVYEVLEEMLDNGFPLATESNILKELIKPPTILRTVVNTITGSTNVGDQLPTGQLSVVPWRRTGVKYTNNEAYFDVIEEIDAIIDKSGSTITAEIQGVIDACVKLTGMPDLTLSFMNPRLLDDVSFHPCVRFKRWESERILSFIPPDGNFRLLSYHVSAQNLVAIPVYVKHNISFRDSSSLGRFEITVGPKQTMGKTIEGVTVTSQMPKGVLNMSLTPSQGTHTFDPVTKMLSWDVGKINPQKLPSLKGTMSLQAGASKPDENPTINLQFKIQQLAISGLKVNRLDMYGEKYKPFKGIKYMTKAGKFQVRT
UniProt Q92624: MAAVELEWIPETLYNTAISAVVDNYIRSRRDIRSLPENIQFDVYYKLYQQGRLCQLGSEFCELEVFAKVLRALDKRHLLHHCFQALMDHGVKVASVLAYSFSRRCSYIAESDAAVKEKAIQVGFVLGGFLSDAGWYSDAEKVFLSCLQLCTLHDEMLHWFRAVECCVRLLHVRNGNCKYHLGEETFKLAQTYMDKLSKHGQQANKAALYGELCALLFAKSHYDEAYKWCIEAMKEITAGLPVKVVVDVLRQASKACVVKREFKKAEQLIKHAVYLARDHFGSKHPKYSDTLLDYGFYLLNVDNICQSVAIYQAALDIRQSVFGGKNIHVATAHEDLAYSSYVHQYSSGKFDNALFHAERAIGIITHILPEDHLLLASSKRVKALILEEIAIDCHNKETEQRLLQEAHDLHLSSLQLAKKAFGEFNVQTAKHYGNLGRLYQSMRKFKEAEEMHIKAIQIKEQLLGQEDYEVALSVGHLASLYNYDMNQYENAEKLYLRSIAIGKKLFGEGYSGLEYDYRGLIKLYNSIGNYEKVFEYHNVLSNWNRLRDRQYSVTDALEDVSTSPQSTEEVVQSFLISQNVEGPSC
UniProt Q9UNK9: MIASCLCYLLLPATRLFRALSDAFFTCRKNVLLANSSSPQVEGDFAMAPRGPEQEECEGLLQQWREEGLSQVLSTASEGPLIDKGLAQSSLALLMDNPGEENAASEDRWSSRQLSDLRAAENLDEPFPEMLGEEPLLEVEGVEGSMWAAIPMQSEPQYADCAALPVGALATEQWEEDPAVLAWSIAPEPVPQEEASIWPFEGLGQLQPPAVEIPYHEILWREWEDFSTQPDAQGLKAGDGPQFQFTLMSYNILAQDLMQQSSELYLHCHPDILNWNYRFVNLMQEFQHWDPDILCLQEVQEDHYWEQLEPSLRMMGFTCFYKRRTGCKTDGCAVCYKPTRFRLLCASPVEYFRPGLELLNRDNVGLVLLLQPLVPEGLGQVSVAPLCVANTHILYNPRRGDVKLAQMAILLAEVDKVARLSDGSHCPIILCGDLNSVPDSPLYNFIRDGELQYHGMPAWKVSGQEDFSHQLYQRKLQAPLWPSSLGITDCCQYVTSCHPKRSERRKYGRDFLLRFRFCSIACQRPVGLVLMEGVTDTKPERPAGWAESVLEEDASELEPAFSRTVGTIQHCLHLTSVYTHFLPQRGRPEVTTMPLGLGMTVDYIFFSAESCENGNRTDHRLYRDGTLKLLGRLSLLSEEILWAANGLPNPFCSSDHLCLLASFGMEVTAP
UniProt Q9H0R1: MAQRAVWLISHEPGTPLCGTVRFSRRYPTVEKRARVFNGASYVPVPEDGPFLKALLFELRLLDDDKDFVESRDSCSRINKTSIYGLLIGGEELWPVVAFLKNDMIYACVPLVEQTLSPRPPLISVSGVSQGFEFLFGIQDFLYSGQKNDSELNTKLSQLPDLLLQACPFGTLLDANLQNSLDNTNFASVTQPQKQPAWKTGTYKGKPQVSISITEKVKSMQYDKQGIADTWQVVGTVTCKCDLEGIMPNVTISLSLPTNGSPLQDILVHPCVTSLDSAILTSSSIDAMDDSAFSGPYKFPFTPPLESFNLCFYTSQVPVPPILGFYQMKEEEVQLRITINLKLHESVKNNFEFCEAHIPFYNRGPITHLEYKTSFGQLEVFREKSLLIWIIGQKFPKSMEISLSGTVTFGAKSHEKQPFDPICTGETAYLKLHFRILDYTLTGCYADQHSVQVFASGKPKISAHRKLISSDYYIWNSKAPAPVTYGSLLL
UniProt P05090: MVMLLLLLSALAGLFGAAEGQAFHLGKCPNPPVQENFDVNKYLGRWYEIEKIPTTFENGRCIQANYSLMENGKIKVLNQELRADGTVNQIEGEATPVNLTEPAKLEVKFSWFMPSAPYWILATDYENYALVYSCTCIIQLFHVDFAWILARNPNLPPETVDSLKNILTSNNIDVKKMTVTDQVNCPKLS
UniProt P05067, whole entry, looked up: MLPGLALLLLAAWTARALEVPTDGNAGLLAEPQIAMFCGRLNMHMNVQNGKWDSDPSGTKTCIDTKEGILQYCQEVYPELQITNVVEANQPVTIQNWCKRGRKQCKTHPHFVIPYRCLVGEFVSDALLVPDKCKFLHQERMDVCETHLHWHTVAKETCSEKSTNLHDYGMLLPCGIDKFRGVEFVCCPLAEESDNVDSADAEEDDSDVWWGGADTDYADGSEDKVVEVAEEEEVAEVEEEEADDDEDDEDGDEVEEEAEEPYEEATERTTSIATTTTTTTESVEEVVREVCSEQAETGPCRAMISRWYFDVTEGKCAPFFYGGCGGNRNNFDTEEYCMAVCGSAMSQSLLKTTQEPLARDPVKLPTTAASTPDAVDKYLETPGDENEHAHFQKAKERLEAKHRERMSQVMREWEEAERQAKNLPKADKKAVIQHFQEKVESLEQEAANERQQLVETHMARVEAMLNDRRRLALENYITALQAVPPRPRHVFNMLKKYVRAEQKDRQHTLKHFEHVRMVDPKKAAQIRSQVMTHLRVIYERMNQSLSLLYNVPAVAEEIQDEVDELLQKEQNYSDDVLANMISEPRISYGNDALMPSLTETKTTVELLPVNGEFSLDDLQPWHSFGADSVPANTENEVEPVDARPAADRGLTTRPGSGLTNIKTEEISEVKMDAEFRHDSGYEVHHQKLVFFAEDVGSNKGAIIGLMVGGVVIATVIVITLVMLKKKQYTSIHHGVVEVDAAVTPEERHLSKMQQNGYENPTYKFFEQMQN
UniProt Q9NUS5: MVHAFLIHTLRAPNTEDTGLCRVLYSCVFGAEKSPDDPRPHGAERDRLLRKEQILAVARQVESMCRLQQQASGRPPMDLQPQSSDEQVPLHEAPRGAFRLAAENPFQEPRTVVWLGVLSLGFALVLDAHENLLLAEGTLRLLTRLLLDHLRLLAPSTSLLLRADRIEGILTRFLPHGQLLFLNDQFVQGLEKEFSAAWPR
UniProt P56377: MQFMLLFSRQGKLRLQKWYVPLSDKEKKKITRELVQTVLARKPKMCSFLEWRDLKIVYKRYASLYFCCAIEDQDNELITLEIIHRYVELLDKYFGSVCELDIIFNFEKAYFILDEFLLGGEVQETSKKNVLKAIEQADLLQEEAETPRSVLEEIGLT
UniProt O15013: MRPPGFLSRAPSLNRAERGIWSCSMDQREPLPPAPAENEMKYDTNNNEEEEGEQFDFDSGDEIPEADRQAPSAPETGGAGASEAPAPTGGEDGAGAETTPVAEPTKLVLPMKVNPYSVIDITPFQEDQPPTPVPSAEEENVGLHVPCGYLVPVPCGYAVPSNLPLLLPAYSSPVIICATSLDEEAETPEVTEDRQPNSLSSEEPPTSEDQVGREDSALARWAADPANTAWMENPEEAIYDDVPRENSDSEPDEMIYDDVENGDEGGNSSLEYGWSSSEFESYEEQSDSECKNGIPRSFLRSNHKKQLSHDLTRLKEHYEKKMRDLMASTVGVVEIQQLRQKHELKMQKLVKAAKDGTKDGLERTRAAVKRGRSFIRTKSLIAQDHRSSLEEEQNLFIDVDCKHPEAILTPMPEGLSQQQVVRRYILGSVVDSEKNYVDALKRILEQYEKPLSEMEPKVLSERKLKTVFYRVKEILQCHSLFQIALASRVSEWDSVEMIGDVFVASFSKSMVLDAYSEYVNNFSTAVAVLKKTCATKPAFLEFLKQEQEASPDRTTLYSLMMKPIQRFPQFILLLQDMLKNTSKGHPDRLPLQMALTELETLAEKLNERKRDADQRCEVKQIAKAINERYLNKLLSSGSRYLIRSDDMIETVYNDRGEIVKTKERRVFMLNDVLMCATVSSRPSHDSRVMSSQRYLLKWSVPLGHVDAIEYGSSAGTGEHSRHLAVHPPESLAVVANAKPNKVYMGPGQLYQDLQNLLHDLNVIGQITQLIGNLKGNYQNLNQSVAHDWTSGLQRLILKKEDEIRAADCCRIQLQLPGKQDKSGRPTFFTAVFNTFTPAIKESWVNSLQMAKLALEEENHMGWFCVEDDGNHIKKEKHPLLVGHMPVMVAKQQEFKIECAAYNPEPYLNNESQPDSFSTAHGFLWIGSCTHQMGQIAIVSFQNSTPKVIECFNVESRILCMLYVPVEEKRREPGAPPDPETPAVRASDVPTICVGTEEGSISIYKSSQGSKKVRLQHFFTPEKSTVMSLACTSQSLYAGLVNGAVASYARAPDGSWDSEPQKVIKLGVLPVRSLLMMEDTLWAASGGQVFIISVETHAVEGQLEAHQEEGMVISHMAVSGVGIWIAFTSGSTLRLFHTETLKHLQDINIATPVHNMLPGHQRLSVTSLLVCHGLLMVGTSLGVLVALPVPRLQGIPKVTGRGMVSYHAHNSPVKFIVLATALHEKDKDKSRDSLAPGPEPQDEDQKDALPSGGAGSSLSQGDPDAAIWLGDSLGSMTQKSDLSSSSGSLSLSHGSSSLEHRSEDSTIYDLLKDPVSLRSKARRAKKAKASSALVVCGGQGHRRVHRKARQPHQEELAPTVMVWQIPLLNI

[2] = compound: C1=CC(=C(C=C1Cl)C2=NC3=NC=CN=C3C(=N2)NC4=CC=NC=C4)F
In short: as §1

[3] = compound: C1=CC2=C(C=CC(=C2)/C=C\3/C(=O)NC(=NCC4=CC=CS4)S3)N=C1
In short: as §1

[4] = compound: C1=CC2=NC=CN=C2C=C1/C=C/3\C(=O)NC(=O)S3
In short: as §1

[5] = compound: C1=CC=C2C(=C1)C3=NNC4=CC=CC(=C43)C2=O
In short: as §1

[6] = compound: C1CCN(C1)C(=O)NC2=CC=CC(=C2)NC3=NC=C(C(=N3)NCCC4=CN=CN4)Br
In short: as §1

[7] = compound: C1CN(CCC1(CC2=CC=C(C=C2)Cl)N)C3=NC=NC4=C3C=CN4
In short: as §1

[8] = compound: C1=CC=C(C=C1)C2=NC(=C(N2)C3=CC=NC=C3)C4=CC(=C(C=C4)Cl)O
In short: as §1

erlotinib = compound: C#Cc1cccc(Nc2ncnc3cc(OCCOC)c(OCCOC)cc23)c1 [erlotinib]
In short: as §1

[9] = compound: C1=CC(=CC=C1C2=NC3=C(N2)C=C(C=C3)C(=O)N)OC4=CC=C(C=C4)Cl
In short: as §1

Measured: log2 fold change

AP2M1 (UniProt C9JTK4)
inactive: [1] -0.114 | [2] 0.036 | [3] 0.322 | [4] 0.172 | [5] -0.12 | [6] 0.084 | [7] -0.065

ARHGAP6 (UniProt O43182)
inactive: [1] 0.34 | [2] -0.254 | [3] -0.208 | [8] -0.07 | [5] -0.153 | [6] -0.034 | [7] -0.147

APOBEC3F (UniProt Q8IUX4)
inactive: [1] -0.295 | [2] -0.208 | [3] -0.21 | [4] 0.326 | [8] -0.05 | [5] -0.023

APOBEC3B (UniProt Q9UH17)
inactive: [8] -0.05

AP3M2 (UniProt P53677)
inactive: erlotinib 0.028 | [9] -0.247 | [4] 0.021

APPBP2 (UniProt Q92624)
inactive: [4] 0.033 | [8] -0.035 | [6] -0.087 | [7] -0.069

ANGEL1 (UniProt Q9UNK9)
inactive: [4] 0.161 | [8] -0.107 | [6] -0.149 | [7] 0.092

APOL1 isoform 2 (UniProt O14791)
inactive: [4] -0.152 | [6] -0.153 | [7] 0.314

ANLN (UniProt Q9NQW6)
inactive: erlotinib 0.006 | [2] -0.027 | [9] -0.121 | [4] -0.227 | [8] -0.188

ANKRD13C (UniProt Q8N6S4)
inactive: [1] -0.277 | [2] -0.076 | [3] -0.088 | [5] 0.166 | [6] -0.022 | [7] -0.142

APLF (UniProt Q8IW19)
inactive: [1] -0.028 | [3] 0.306 | [5] -0.22

ARID1B isoform 3 (UniProt Q8NFD5)
inactive: [4] 0.017 | [8] 0.276

ARID4B (UniProt Q4LE39)
inactive: [6] 0.126 | [7] -0.03

AP2S1 (UniProt M0QZ21)
inactive: [6] -0.625 | [7] 0.21

AP5M1 (UniProt Q9H0R1)
inactive: [2] -0.194 | [4] -0.047 | [8] -0.2

APOC3 (UniProt P02656)
inactive: [1] -0.083 | [2] 0.231 | [3] 0.148 | [4] 0.042 | [8] -0.379 | [5] -0.017 | [6] -0.298 | [7] -0.082

APH1B (UniProt Q8WW43)
inactive: [1] 0.213 | [3] -0.067 | [5] -0.08

APOA4 (UniProt P06727)
inactive: [1] -0.282 | [2] 0.137 | [3] 0.262 | [4] 0.019 | [8] 0.017 | [5] -0.183 | [6] 0.042 | [7] 0.15

ANKRD16 (UniProt Q6P6B7)
inactive: erlotinib -0.039 | [2] -0.067 | [9] 0.013 | [4] 0.016

ARAP1 (UniProt Q96P48)
inactive: [2] -0.184 | [4] 0 | [8] 0.013 | [6] -0.14 | [7] -0.622

ANKRD27 (UniProt Q96NW4)
inactive: [8] -0.093

APOD (UniProt P05090)
inactive: erlotinib 0.207 | [1] -0.003 | [9] -0.477 | [3] 0.037 | [5] -0.361 | [6] -0.12 | [7] 0.045

ARHGAP5 (UniProt Q13017)
inactive: erlotinib -0.154 | [2] 0.007 | [9] -0.167 | [4] -0.219 | [8] 0.109 | [6] 0 | [7] -0.253

3 neighbouring records already listed, for reference:
ARAP1 (UniProt Q96P48)
inactive: [2] -0.184 | [4] 0 | [8] 0.013 | [6] -0.14 | [7] -0.622

ANKRD27 (UniProt Q96NW4)
inactive: [8] -0.093

APOD (UniProt P05090)
inactive: erlotinib 0.207 | [1] -0.003 | [9] -0.477 | [3] 0.037 | [5] -0.361 | [6] -0.12 | [7] 0.045

Later entries:

APP (UniProt P05067)
inactive: erlotinib 0.092 | [2] -0.21 | [9] -0.029 | [8] -0.05 | [6] -0.15 | [7] -0.025

API5 isoform 1 (UniProt Q9BZZ5)
inactive: [1] -0.042 | [2] 0.187 | [3] -0.017 | [5] 0.13 | [6] -0.013 | [7] 0.041

ANKS1A (UniProt Q92625)
inactive: [1] -0.316 | [2] -0.016 | [3] 0.215 | [4] 0.123 | [8] 0.028 | [5] 0.136 | [6] -0.082 | [7] -0.097

AP1B1 isoform 3 (UniProt Q10567)
inactive: [1] 0.028 | [2] 0.263 | [3] 0.016 | [8] 0.076 | [5] -0.005 | [6] -0.07 | [7] 0.042

AP1G2 (UniProt O75843)
inactive: erlotinib 0.028 | [9] -0.018 | [8] -0.249

ANXA2 (UniProt H0YMT9)
inactive: [2] 0.238 | [4] 0.123

ARHGAP21 (UniProt Q5T5U3)
inactive: [2] -0.236 | [4] -0.283 | [8] -0.221

ANKRD26 (UniProt Q9UPS8)
inactive: [1] 0.109 | [3] -0.033 | [8] 0.023 | [5] -0.038 | [6] -0.002 | [7] 0.073

ANKRD36 (UniProt A6QL64)
inactive: [2] -0.124 | [6] 0.17 | [7] -0.1

AP5S1 (UniProt Q9NUS5)
inactive: erlotinib -0.008 | [9] 0.109

ANKRD11 (UniProt Q6UB99)
inactive: erlotinib -0.094 | [9] -0.019 | [4] 0.001 | [8] -0.271

AP1S2 (UniProt P56377)
inactive: [1] 0.331 | [2] 0 | [3] -0.223 | [4] 0.027 | [5] -0.067

ARFIP1 isoform 2 (UniProt P53367)
inactive: erlotinib 0.106 | [2] -0.064 | [9] -0.051 | [4] -0.06

ARHGAP22 isoform 2 (UniProt Q7Z5H3)
inactive: [8] 0.081 | [6] -0.241 | [7] 0.048

ARHGEF10 (UniProt O15013)
inactive: [4] 0.029

Reference: the supplement of paper PMC10849652
